Assay results taken from the supplement of paper PMC4635364.
Structures can show the parent of a compound that is named as a salt. This is one part of the list. Repeats in this data set agree poorly, so a single value says little.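 ReNCell VM, a human fetal ventral-midbrain neural progenitor line, was differentiated without mitogens. Blinded raters scored images stained for doublecortin (early neurons) or tyrosine hydroxylase (dopaminergic neurons) against untreated wells (0 = no change). Scores were averaged across repeats and both raters, and compounds averaging 2 or more were selected as hits for retesting.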

tested on: ReNCell VM; assay: neuronal differentiation score (DCX+ cell fraction vs untreated, manual image score) (score (-3 to 3)); higher = more neuronal differentiation; conditions: library: LOPAC; 2 uM; 2 weeks

Row | SMILES | neuronal differentiation score
1 | COc1ccc2c(c1O)-c1cccc3c1[C@@H](C2)N(C)CC3 [R(-)-Apocodeine hydrochloride] | active: 2
2 | C[C@H]1OC[C@@H](C[N+](C)(C)C)O1 [(+)-cis-Dioxolane] | inactive: 0
3 | O=C[C@H](Cl)[C@@H](O)[C@H](O)[C@H](O)CO [2-Chloro-2-deoxy-D-glucose] | inactive: 0
4 | CCN(CCCl)Cc1ccccc1Br [DSP-4 hydrochloride] | inactive: 0

same assay, conditions: library: Phytochemical; 2 uM; 2 weeks

Row | SMILES | neuronal differentiation score
5 | CNC(=O)Oc1ccc2c(c1)[C@]1(C)CC[N+](C)([O-])[C@@H]1N2C (stereo not given in full) [Geneserine] | inactive: 1
6 | CN1C2CC(=O)CC1C(O)C2 (stereo not given) [6-Hydroxytropinone] | inactive: 0
7 | CC1=C2[C@H]3OC(=O)[C@@H](C)[C@@H]3CC[C@@]2(C)C=CC1=O [alpha-Santonin] | inactive: 0
8 | CC[C@H]1C[C@@H]2CN3CCc4c([nH]c5ccccc45)[C@](C(=O)OC)(C2)[C@H]13 [Coronaridine] | inactive: 0

same assay, conditions: library: Spectrum; 2 uM; 2 weeks

Row | SMILES | neuronal differentiation score
9 | CCN(C(C)=O)c1cccc(-c2ccnc3c(C#N)cnn23)c1 | inactive: 0
10 | O=[N+]([O-])C(Br)(CO)CO | inactive: 0
11 | C=C(C)[C@@H]1[C@H]2OC(=O)[C@@H]1[C@]1(O)C[C@H]3O[C@]34C(=O)O[C@H]2[C@]14C | inactive: 0
12 | CCC(C)(C)O | inactive: 0
13 | CC[C@@H](C(=O)[C@@H](C)[C@@H](O)[C@H](C)[C@@H]1O[C@@H]([C@@H](CC)C(=O)O)CC[C@@H]1C)[C@H]1O[C@]2(C=C[C@@H](O)[C@]3(CC[C@@](C)([C@H]4CC[C@](O)(CC)[C@H](C)O4)O3)O2)[C@H](C)C[C@@H]1C | inactive: 0
14 | COc1cc2c(cc1OC)[C@@H]1C(=O)c3ccc4oc(C(C)C)cc4c3O[C@@H]1CO2 | inactive: 0
15 | CC(C)c1ccc2c(c1O)CC[C@H]1C3=C(CC[C@]21C)C(=O)OC3 | inactive: 0
16 | CC(C)c1c(CN(C)C(C)Cc2ccccc2)n(C)n(-c2ccccc2)c1=O (stereo not given) | inactive: 0
17 | CN1[C@H]2C[C@H](OC(=O)[C@H](CO)c3ccccc3)C[C@@H]1[C@@H](O)C2 | inactive: 0
18 | C[C@]12CCC(=O)C=C1C=C[C@@H]1[C@@H]2CC[C@@]2(C)[C@H]1CC[C@@]2(O)CCC(=O)O | inactive: 1
19 | CC(=O)CC1CCCCN1 (stereo not given) | inactive: 0
20 | O=[N+]([O-])c1ccc([As](=O)(O)O)cc1 | inactive: 1
21 | C=C(C)[C@H]1Cc2c(ccc3c(=O)c4c(oc23)COc2cc(OC)c(OC)cc2-4)O1 | inactive: 0
22 | C[C@H]1O[C@@H](O[C@H]2[C@@H](O)C[C@H](O[C@H]3[C@@H](O)C[C@H](O[C@H]4CC[C@@]5(C)[C@H](CC[C@@H]6[C@@H]5CC[C@]5(C)[C@@H](C7=CC(=O)OC7)[C@@H](O)C[C@]65O)C4)O[C@@H]3C)O[C@@H]2C)C[C@H](O)[C@@H]1O | inactive: 0
23 | CN1C[C@H](C(=O)N[C@]2(C)O[C@@]3(O)[C@@H]4CCCN4C(=O)[C@H](Cc4ccccc4)N3C2=O)C[C@@H]2c3cccc4[nH]cc(c34)C[C@H]21 | inactive: 0
24 | COc1cccc(C2(O)CCCCC2CN(C)C)c1 (stereo not given) | inactive: 0
25 | CC[N+]1(C)CCCC(OC(=O)C(O)(c2ccccc2)c2ccccc2)C1 (stereo not given) | inactive: 0
26 | CC1=C2C(=CO[C@H](C)[C@H]2C)C(O)=C(C(=O)O)C1=O | inactive: 0
27 | CC(=O)OCC1=C(C(=O)O)N2C(=O)[C@@H](N)[C@H]2SC1 | inactive: 0

Part of the list above in order of molecular weight, descending.
Row | SMILES | neuronal differentiation score
22 | C[C@H]1O[C@@H](O[C@H]2[C@@H](O)C[C@H](O[C@H]3[C@@H](O)C[C@H](O[C@H]4CC[C@@]5(C)[C@H](CC[C@@H]6[C@@H]5CC[C@]5(C)[C@@H](C7=CC(=O)OC7)[C@@H](O)C[C@]65O)C4)O[C@@H]3C)O[C@@H]2C)C[C@H](O)[C@@H]1O | inactive: 0
11 | C=C(C)[C@@H]1[C@H]2OC(=O)[C@@H]1[C@]1(O)C[C@H]3O[C@]34C(=O)O[C@H]2[C@]14C | inactive: 0
19 | CC(=O)CC1CCCCN1 (stereo not given) | inactive: 0

same assay, conditions: library: Tocriscreen; 2 uM; 2 weeks

Row | SMILES | neuronal differentiation score
28 | CN1CC[C@@H]2CN3CCc4cccc(c43)[C@@H]2C1 [SDZ SER 082 fumarate] | inactive: 0
29 | NC1(c2ccccc2Cl)CCCCC1=O (stereo not given) [Norketamine hydrochloride] | inactive: 0
30 | Ic1cncc(OC[C@@H]2CCN2)c1 | inactive: 0
31 | CC(C)(Cc1c[nH]c2ccc(Cl)cc12)NCCOc1ccccc1OCC1CC1 | inactive: 0
32 | N#Cc1ccc(N2CCN(C(=O)COc3ccc4[nH]cc(CCN)c4c3)CC2)cc1 [Donitriptan hydrochloride] | inactive: 0
33 | COc1cc2c(cc1O)C(CCc1ccc(Cl)cc1)N(C)CC2 (stereo not given) | inactive: 0
34 | Cc1[nH]c2ccc(Cl)cc2c1C1=CCNCC1 | inactive: 0
35 | O=C(O)C1=CCCN(CCOC(c2ccc(C(F)(F)F)cc2)c2ccc(C(F)(F)F)cc2)C1 [CI 966 hydrochloride] | inactive: 0
36 | CN1[C@@H]2CC[C@H]1CC(OC(=O)N1Cc3ccccc3NC1=O)C2 (stereo not given in full) [DAU 5884 hydrochloride] | inactive: 0

tested on: ReNCell VM; assay: dopaminergic neuron differentiation score (TH+ cell fraction vs untreated, manual image score) (score (0 to 3)); higher = more TH+ dopaminergic neuron differentiation; conditions: library: LOPAC; 2 uM; 4 weeks; BDNF 10 ng/ml + GDNF 10 ng/ml

Row | SMILES | dopaminergic neuron differentiation score
37 | COc1ccc2c(c1O)-c1cccc3c1[C@@H](C2)N(C)CC3 [R(-)-Apocodeine hydrochloride] | inactive: 0
38 | C[C@H]1OC[C@@H](C[N+](C)(C)C)O1 [(+)-cis-Dioxolane] | inactive: 0
39 | O=C[C@H](Cl)[C@@H](O)[C@H](O)[C@H](O)CO [2-Chloro-2-deoxy-D-glucose] | inactive: 0
40 | CCN(CCCl)Cc1ccccc1Br [DSP-4 hydrochloride] | active: 3
